# Measured values as given in article PMC7460240 (Biomedicines, 2020).
# Tested on: H295R cells
# Conditions: 7 days, 0.5 µM astemizole
smiles,measurement,value
"COc1ccc(CCN2CCC(Nc3nc4ccccc4n3Cc3ccc(F)cc3)CC2)cc1 [astemizole, Astemizole]",dxr-IC50 decrease by astemizole (anti-proliferative effect),about three times
